The target of this assay is T1, ubiquitin ligase PDZRN3 (UniProt Q9UPQ7).
T1 sequence: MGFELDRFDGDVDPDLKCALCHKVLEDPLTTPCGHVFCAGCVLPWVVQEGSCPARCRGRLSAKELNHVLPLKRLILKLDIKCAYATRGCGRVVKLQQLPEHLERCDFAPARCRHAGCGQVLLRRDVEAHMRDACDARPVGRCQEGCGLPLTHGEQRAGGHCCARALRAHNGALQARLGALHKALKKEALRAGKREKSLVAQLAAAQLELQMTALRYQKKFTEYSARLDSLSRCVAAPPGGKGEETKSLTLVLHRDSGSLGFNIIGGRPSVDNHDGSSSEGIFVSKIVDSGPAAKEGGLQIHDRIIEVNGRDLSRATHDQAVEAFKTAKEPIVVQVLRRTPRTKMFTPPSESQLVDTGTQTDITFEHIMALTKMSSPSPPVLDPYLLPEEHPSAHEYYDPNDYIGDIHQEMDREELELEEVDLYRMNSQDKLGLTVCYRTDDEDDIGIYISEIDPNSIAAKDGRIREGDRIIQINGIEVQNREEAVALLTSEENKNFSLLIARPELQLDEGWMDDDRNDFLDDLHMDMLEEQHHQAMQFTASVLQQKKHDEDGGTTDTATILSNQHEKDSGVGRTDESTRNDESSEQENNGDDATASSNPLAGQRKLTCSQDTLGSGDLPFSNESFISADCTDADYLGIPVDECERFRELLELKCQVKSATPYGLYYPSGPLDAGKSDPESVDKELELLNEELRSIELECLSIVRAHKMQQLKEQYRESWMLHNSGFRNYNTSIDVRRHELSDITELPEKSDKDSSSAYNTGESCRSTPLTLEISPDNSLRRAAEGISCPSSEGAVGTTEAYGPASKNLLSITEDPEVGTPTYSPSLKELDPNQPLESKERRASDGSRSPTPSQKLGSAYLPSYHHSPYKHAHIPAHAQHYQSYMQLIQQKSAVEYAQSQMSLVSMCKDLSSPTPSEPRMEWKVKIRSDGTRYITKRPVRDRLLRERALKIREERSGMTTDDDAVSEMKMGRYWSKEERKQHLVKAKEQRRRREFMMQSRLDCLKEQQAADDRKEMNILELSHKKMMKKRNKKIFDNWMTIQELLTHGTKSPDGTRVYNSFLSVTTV
Nature of the assay: proximity labelling; BioID in brain endothelial cells (EC), PDZRN3 as bait.

Data on 1 molecule can be found in publication PMC10114295.

No constants are given. Whether binding was seen depends on the method and setting. In cells and extracts the contact can be indirect. These calls come from enrichment with a bait or labelling near it, and not all partners need be listed.

B1: Mutated in colon cancer protein (MCC) (protein, UniProt P23508 1-829)
chain: MNSGVAMKYGNDSSAELSELHSAALASLKGDIVELNKRLQQTERERDLLEKKLAKAQCEQSHLMREHEDVQERTTLRYEERITELHSVIAELNKKIDRLQGTTIREEDEYSELRSELSQSQHEVNEDSRSMDQDQTSVSIPENQSTMVTADMDNCSDLNSELQRVLTGLENVVCGRKKSSCSLSVAEVDKHIEQLTTASEHCDLAIKTVEEIEGVLGRDLYPNLAEERSRWEKELAGLREENESLTAMLCSKEEELNRTKATMNAIREERDRLRRRVRELQTRLQSVQATGPSSPGRLTSTNRPINPSTGELSTSSSSNDIPIAKIAERVKLSKTRSESSSSDRPVLGSEISSIGVSSSVAEHLAHSLQDCSNIQEIFQTLYSHGSAISESKIREFEVETERLNSRIEHLKSQNDLLTITLEECKSNAERMSMLVGKYESNATALRLALQYSEQCIEAYELLLALAESEQSLILGQFRAAGVGSSPGDQSGDENITQMLKRAHDCRKTAENAAKALLMKLDGSCGGAFAVAGCSVQPWESLSSNSHTSTTSSTASSCDTEFTKEDEQRLKDYIQQLKNDRAAVKLTMLELESIHIDPLSYDVKPRGDSQRLDLENAVLMQELMAMKEEMAELKAQLYLLEKEKKALELKLSTREAQEQAYLVHIEHLKSEVEEQKEQRMRSLSSTSSGSKDKPGKECADAASPALSLAELRTTCSENELAAEFTNAIRREKKLKARVQELVSALERLTKSSEIRHQQSAEFVNDLKRANSNLVAAYEKAKKKHQNKLKKLESQMMAMVERHETQVRMLKQRIALLEEENSRPHTNETSL
Consider B1, for which the binding entry was “binds”.
